# Data: PubChem BioAssay AID504467 (National Center for Advancing Translational Sciences (NCATS), 2011)
# Among all 330,000 compounds or so, about 7,700 (2.3%) were called active. Inconclusive means that the source gave no clear call. Such entries were picked first, then a sample of the others. The call rests on the fitted dose curve; in most records, active means well fitted inhibition curve with a large enough effect; inconclusive means small, poorly fitted or top-dose-only effect, or effect the other way; inactive means flat fitted curve, though single readings scatter. Where the call is inconclusive, the potency comes from a doubtful curve fit.
# Assay: qHTS screen for small molecules that inhibit ELG1-dependent DNA repair in human embryonic kidney (HEK293T) cells expressing luciferase-tagged ELG1; further: nearly all actives have a fitted effect of over 55% in size
# Details: HEK293T ELG1-luciferase reporter, luminescence, 16 h, DNA damage induced by 5-fluorouridine; activity change, negative = inhibition: at 46.1 µM (top of the series)
# Method in brief: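 DMSO vehicle served as the neutral condition. Each well held 2,000 cells given 5-fluorouridine plus compound; after 16 hr at 37 °C/5% CO2, ONE-Glo was added and luciferase measured 30 min later.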
# On the % scale 0 is the no-effect control and ±100 the full control effect; potency means the concentration at half of the fitted maximal effect.
Compound,"activity change, negative = inhibition",Potency
OC(Cn1ccnc1)c1ccc(Cl)cc1Cl (stereo not drawn),inactive: 11.2%,–
COc1ccc(C(C[N+](=O)[O-])n2nc(C)cc2C)cc1 (stereo not drawn),–,"inconclusive: 29.1 µM [inhibitor, single point]"
CCCCn1c(N)c(N(CCOC)C(=O)CSCc2ccc(C)cc2)c(=O)[nH]c1=O,inactive: 1.02%,–
CCOc1ccc(NC(=O)Nc2cc(OCC(F)(F)F)cc(OCC(F)(F)F)c2)cc1,–,"inconclusive: 16.4 µM [inhibitor, single point]"
COc1cc(C=O)ccc1OCC(=O)Nc1cccc(S(=O)(=O)N(C)c2ccccc2)c1,–,"inconclusive: 29.1 µM [inhibitor, single point]"
COc1cccc(=O)c2c(C)n(-c3cc(C)cc(C)c3)c(C)c12,inactive: -4.22%,–
O=C(Nc1ccccc1C(=O)NC1CCCCC1)c1ccccc1,–,"inconclusive: 20.6 µM [activator, partial curve, poor fit]"
CCOC(=O)N1CCC(Nc2c(OCC)c(=O)c2=O)CC1,inactive: 15.8%,–
COCC(=O)N/N=C\c1cccc(OC)c1OC/C=C/c1ccccc1,–,"inconclusive: 20.6 µM [inhibitor, single point]"
Cc1ccnc(NS(=O)(=O)c2ccc(NS(C)(=O)=O)cc2)n1,inactive: -2.36%,–
O=C1C=C(c2ccc(F)cc2OCc2ccccc2)C[C@@H](c2ccc(F)cc2)C1,–,"inconclusive: 5.17 µM [inhibitor, full curve]"
CC(C)(C)CNc1cc(N2CCCC2)ccc1[N+](=O)[O-],inactive: -1.86%,–
COc1cccc(/C=C/C(=O)N(C)CC(=O)Nc2ccc(Cl)c(C(F)(F)F)c2)c1,inactive: -9.27%,–
Cc1ccc(NC(=O)Nc2cccnc2)cc1NC(=O)Nc1cccnc1,–,active: 8.2 µM
Cc1ccc(CC2CC(=O)N(Cc3ccco3)C2=O)cc1 (stereo not drawn),inactive: 4.1%,–
Cc1ccc(O)c(-c2cc(C(=O)Nc3ccc(S(=O)(=O)Nc4nc(C)cc(C)n4)cc3)[nH]n2)c1,inactive: -7.72%,–
Cc1ccc(NC(=O)c2nnn(-c3cc(C)cc(C)c3)c2N)cc1,–,"inconclusive: 11.6 µM [activator, partial curve]"
COC(C(=O)NNC(=O)CCc1ccccc1)c1ccccc1 (stereo not drawn),inactive: -12.5%,–
CC(C)c1nnc(NC(=O)Cc2ccccc2[N+](=O)[O-])s1,–,"inconclusive: 16.4 µM [activator, partial curve, poor fit]"
O=C(c1ccccc1)N1CCCCC(Cl)C1=O (stereo not drawn),inactive: 3.89%,–
COc1ccc(NC(=O)CN(C)C(=O)CCCN2C(=O)c3cccc4cccc(c34)C2=O)cc1,inactive: -20.8%,–
COc1ccc(C(=O)N[C@H](C(=O)OCc2cc(=O)oc3cc(C)ccc23)C(C)C)cc1,–,"inconclusive: 29.1 µM [inhibitor, single point]"
Nc1ccccc1Nc1cc(-c2cccc(Cl)c2)nn1-c1ccccc1,–,"inconclusive: 16.4 µM [activator, partial curve, poor fit]"
OC1(C#CCN2CCCC2)CCCCC1,inactive: -13.6%,–
O=S(=O)(c1ccccc1)N1CCN(c2ncnc3sc(-c4ccccc4)cc23)CC1,–,"inconclusive: 32.6 µM [activator, single point]"

# For reference, part of the list above:
Compound,"activity change, negative = inhibition",Potency
COc1cc(C=O)ccc1OCC(=O)Nc1cccc(S(=O)(=O)N(C)c2ccccc2)c1,–,"inconclusive: 29.1 µM [inhibitor, single point]"
COc1cccc(=O)c2c(C)n(-c3cc(C)cc(C)c3)c(C)c12,inactive: -4.22%,–
O=C(Nc1ccccc1C(=O)NC1CCCCC1)c1ccccc1,–,"inconclusive: 20.6 µM [activator, partial curve, poor fit]"

# Later entries

Compound,"activity change, negative = inhibition",Potency
CC1=C(C)C(=O)C(CCCCC#CCCCC#CCO)=C(C)C1=O,inactive: -24.3%,–
Cc1cccc(-c2nnc(-c3ccccc3)o2)c1,–,"inconclusive: 14.6 µM [activator, partial curve]"
CCOC(=O)Cc1csc(NC(=O)c2csc3c2CCCC3)n1,inactive: -10%,–
COc1ccc(CNC(=O)CCCCCNc2nc(=S)[nH]c3ccccc23)cc1,–,"inconclusive: 20.6 µM [inhibitor, single point]"
Cc1cc(S(=O)(=O)NC2CC(C)(C)NC(C)(C)C2)c(Cl)cc1Cl,–,"inconclusive: 3.16 µM [activator, single point]"
O=C1NC(=Nc2ccccc2)S/C1=C\c1ccccc1,–,"inconclusive: 5.62 µM [activator, single point]"
Cc1ccc(-c2c[n+](Cc3cccc(Cl)c3)c3n2CCC3)cc1,–,active: 10.3 µM
Cc1csc(NC(=O)c2oc3ccccc3c2C)n1,–,"inconclusive: 4.11 µM [activator, partial curve]"
Cc1c(OCC(=O)NC2CC(C)(C)NC(C)(C)C2)ccc2c1oc(=O)c1ccccc12,inactive: 18.1%,–
Cc1cc(C(=O)NCC2CCCCC2)ccc1[N+](=O)[O-],–,"inconclusive: 11.6 µM [activator, partial curve]"
CCc1ccc(CN(C)C(=O)C2=CC=CN3CCS(=O)(=O)N=C23)cc1,–,"inconclusive: 32.6 µM [activator, partial curve, poor fit]"
O=C1CSC(c2cccnc2)N1Cc1cccnc1 (stereo not drawn),inactive: -3.49%,–
COc1cccc(N2CCN(C(=O)c3ccc(CSc4nc5ccncc5[nH]4)cc3)CC2)c1,–,"inconclusive: 29.1 µM [inhibitor, single point]"
O=C(Cc1ccccc1[N+](=O)[O-])Nc1ccc2c(c1)OCO2,–,"inconclusive: 18.3 µM [activator, partial curve]"
Cc1ccc(-n2cccn2)c(CN2CCCC(C(=O)c3sccc3C)C2)c1 (stereo not drawn),–,active: 16.4 µM
O=C(c1ccccc1)c1cnc(Nc2ccc(Cl)c(Cl)c2)s1,inactive: 7.96%,–
COc1cc(C(=O)NCC(c2cccnc2)N2CCN(c3ccc(F)cc3)CC2)cc(OC)c1OC (stereo not drawn),–,"inconclusive: 20.6 µM [inhibitor, partial curve, poor fit]"
COc1ccccc1CNC(=O)CSC1=NCCS1,–,"inconclusive: 13 µM [activator, partial curve, poor fit]"
O=C(Nc1nc2ccc(F)cc2s1)C1CCN(S(=O)(=O)c2cc([N+](=O)[O-])ccc2Cl)CC1,–,"inconclusive: 29.1 µM [inhibitor, single point]"
c1ccc(-n2cnc3cc(NCc4ccco4)ccc32)cc1,–,"inconclusive: 20.6 µM [activator, single point]"
CCn1c(SCc2ccc(C(=O)Nc3cc(C)cc(C)c3)cc2)nnc1-c1ccncc1,–,"inconclusive: 16.4 µM [inhibitor, single point]"
O=C(Nc1sc2c(c1C(=O)O)CCC2)c1ccccc1Cl,inactive: -7.14%,–
Cn1ncc(Cl)c1C(=O)Nc1ccc2c(c1)OCO2,inactive: 26.9%,–
Cc1ccc2[nH]cc(C(=O)NCc3cccs3)c(=O)c2c1,–,"inconclusive: 25.9 µM [inhibitor, partial curve]"
C=COCCNC(=S)Nc1cccc(Cl)c1,inactive: 5.4%,–

Compound,"activity change, negative = inhibition",Potency
CN(CCc1ccccc1)C(=O)CCc1nnc(Cc2ccc3c(c2)OCO3)o1,inactive: 13.2%,–
Cc1cccc(/C=N/NC(=O)c2cc(C3CC3)nc3ccccc23)n1,inactive: -0.821%,–
Cc1nc(-c2ccc([N+](=O)[O-])cc2)c(-c2ccccc2)o1,–,"inconclusive: 6.51 µM [inhibitor, partial curve, poor fit]"
C[n+]1cccc(C2C(C#N)=C(N)Oc3c2ccc2ccccc32)c1 (stereo not drawn),inactive: -7.14%,–
O=S(=O)(c1ccc(F)cc1F)N1CCCN(c2ccc(C(F)(F)F)cn2)CC1,–,"inconclusive: 32.6 µM [inhibitor, partial curve, poor fit]"
O=c1c2ccccc2nc2ccc(N3CCOCC3)nn12,–,"inconclusive: 20.6 µM [activator, partial curve]"
CC(=O)c1ccc(N2CCN(C(=O)Cn3cnc(S(=O)(=O)N4CCCCC4)c3)CC2)cc1,–,"inconclusive: 20.6 µM [activator, single point]"
CCCCCc1ccc(OCCC[n+]2ccccc2)c(CCCCC)c1,–,"inconclusive: 4.11 µM [inhibitor, single point]"
Cc1cc2c(ncn2Cc2ccccc2)c([N+](=O)[O-])c1C,inactive: 10.2%,–
CCN(CC)S(=O)(=O)c1ccc(N2CCOCC2)c(NC(=O)CNCCc2ccccc2)c1,–,"inconclusive: 29.1 µM [inhibitor, partial curve, poor fit]"
O=C(c1ccccc1)N1CCn2c1nc1ccccc12,–,"inconclusive: 16.4 µM [activator, partial curve]"
CCOc1ccc(C(=S)NC2CCCCC2)cc1OC,–,"inconclusive: 0.731 µM [activator, partial curve, poor fit]"
C=CCC[C@@H](Cc1ccc(F)cc1)C(=O)OC[C@H](C)NC(=O)[C@H](CC=C)CC(=O)N(CCO)Cc1ccccc1,–,active: 25.9 µM
CCN1CCN(C(c2cc3cccc(C)c3[nH]c2=O)c2nnnn2Cc2ccccc2)CC1 (stereo not drawn),inactive: 0.109%,–
COc1ccc(CNc2nc3c(c(=O)n(Cc4ccc(Cl)cc4)c(=O)n3C)n2C)cc1,–,"inconclusive: 5.17 µM [inhibitor, partial curve, poor fit]"
O=C(COC(=O)c1cccc(Br)c1)Nc1ccc2[nH]c(=O)[nH]c2c1,inactive: 0.353%,–
CCn1cc(C(=O)NCC2COc3ccccc3O2)c2cc(OC)c(OC)cc2c1=O (stereo not drawn),–,active: 14.6 µM
Cc1ccc(C2(C)NC(=O)N(CC(=O)Nc3ccc(Cl)c(S(=O)(=O)N4CCCCC4)c3)C2=O)cc1 (stereo not drawn),–,"inconclusive: 29.1 µM [inhibitor, single point]"
CC(C)N1CCc2c(sc(NC(=O)c3ccc(S(=O)(=O)N4CCOCC4)cc3)c2C(N)=O)C1,–,"inconclusive: 1.84 µM [inhibitor, partial curve, poor fit]"
Cc1cc(-c2n[nH]c(=S)n2-c2ccccc2)nn1C,–,"inconclusive: 20.6 µM [activator, partial curve, poor fit]"
COc1ccc2c(COC(=O)[C@@H]3CCCN3S(=O)(=O)c3ccc(Cl)cc3)cc(=O)oc2c1,inactive: 9.03%,–
COc1cc(/C=C2\C(=O)ON=C2c2ccccc2)cc(OC)c1OC,–,"inconclusive: 25.9 µM [activator, single point]"
Nn1cc(-c2ccccc2)nc1SCC(=O)Nc1cccc(S(N)(=O)=O)c1,inactive: 2.33%,–
